Experimental data published in PMC8140593 (PeerJ, 2021).

Assay: general procedure: solution-phase peptide synthesis; pentafluorophenyl trifluoroacetate / bis(pentafluorophenyl) carbonate (pentafluo)

Substance | step yield (late stage modification step) | step yield (coupling step)
l-alanyl-γ-d-glutamyl-l-alanyl-d-alanine trifluoroacetate | 92% | –
Nα-tert-butoxycarbonyl-l-alanyl-α-tert-butyl-d-glutamyl-l-alanyl-d-alanine tert butyl ester | – | 62%
